We go through two molecules from publication PMC9636801.

For test [1], the target named is receptor-interacting protein 3 (mouse (endogenous in primary microglia)), Q9QZL0. In words: co-IP; endogenous proteins in lysates of primary microglial cells (weak RIPA lysis buffer); IP with anti-RIPK1 or anti-RIPK3 antibody overnight at 4 °C, protein A/G agarose, immunoblot; cells untreated, treated with 100 μm glutamate for 24 h, or glutamate plus Fetuin-A. Conditions: remark: other sources report otherwise. On the technique in general: In western blotting, separated proteins are transferred to a membrane and probed.

The target of test [2] is T1, receptor-interacting protein 1 (mouse (endogenous in primary microglia)), Q60855.
T1 chain: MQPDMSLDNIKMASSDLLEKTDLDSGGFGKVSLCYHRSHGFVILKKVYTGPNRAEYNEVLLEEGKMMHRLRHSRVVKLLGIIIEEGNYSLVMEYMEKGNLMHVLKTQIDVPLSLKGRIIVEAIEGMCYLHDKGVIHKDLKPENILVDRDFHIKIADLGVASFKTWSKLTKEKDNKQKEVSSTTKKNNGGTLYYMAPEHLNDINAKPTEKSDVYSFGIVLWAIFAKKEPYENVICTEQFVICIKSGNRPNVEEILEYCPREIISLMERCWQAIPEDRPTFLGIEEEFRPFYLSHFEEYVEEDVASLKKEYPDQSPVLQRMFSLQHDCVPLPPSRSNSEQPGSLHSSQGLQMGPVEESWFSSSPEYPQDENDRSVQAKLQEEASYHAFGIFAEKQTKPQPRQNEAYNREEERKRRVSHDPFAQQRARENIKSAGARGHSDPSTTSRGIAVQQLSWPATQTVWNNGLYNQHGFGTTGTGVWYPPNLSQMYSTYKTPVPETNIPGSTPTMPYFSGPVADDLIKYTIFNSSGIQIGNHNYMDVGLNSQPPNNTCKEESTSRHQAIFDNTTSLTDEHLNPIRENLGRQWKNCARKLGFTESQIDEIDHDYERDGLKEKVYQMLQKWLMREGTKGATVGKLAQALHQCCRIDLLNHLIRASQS
The test is described as above. Conditions: remark: other sources report otherwise.

Results are given in words; binding and its absence hold for the method and conditions named. Binding seen in cells or lysates may run through a third protein. Some results given as binding are weak or reduced against the parent protein; the word gives no strength.

B1: receptor-interacting protein 1, Q60855 1-656 (protein)
chain: T1 chain
On to B1, for which the binding result in test [1] is given as “binds”.

B2: receptor-interacting protein 3, Q9QZL0 1-486 (protein)
chain: MSSVKLWPTGASAVPLVSREELKKLEFVGKGGFGVVFRAHHRTWNHDVAVKIVNSKKISWEVKAMVNLRNENVLLLLGVTEDLQWDFVSGQALVTRFMENGSLAGLLQPECPRPWPLLCRLLQEVVLGMCYLHSLNPPLLHRDLKPSNILLDPELHAKLADFGLSTFQGGSQSGSGSGSGSRDSGGTLAYLDPELLFDVNLKASKASDVYSFGILVWAVLAGREAELVDKTSLIRETVCDRQSRPPLTELPPGSPETPGLEKLKELMIHCWGSQSENRPSFQDCEPKTNEVYNLVKDKVDAAVSEVKHYLSQHRSSGRNLSAREPSQRGTEMDCPRETMVSKMLDRLHLEEPSGPVPGKCPERQAQDTSVGPATPARTSSDPVAGTPQIPHTLPFRGTTPGPVFTETPGPHPQRNQGDGRHGTPWYPWTPPNPMTGPPALVFNNCSEVQIGNYNSLVAPPRTTASSSAKYDQAQFGRGRGWQPFHK
With B2, in test [2], the binding result was “binds”.
